From PMC7555701
Results are given in words; binding and its absence hold for the method and conditions named. Binding seen in cells or lysates may run through a third protein. Some binding calls cover weakened binding; strength is not graded here.

Target: T1, TNF receptor-associated factor 2 (TRAF2) (human (endogenous in HCT 116)), Q12933
T1 chain: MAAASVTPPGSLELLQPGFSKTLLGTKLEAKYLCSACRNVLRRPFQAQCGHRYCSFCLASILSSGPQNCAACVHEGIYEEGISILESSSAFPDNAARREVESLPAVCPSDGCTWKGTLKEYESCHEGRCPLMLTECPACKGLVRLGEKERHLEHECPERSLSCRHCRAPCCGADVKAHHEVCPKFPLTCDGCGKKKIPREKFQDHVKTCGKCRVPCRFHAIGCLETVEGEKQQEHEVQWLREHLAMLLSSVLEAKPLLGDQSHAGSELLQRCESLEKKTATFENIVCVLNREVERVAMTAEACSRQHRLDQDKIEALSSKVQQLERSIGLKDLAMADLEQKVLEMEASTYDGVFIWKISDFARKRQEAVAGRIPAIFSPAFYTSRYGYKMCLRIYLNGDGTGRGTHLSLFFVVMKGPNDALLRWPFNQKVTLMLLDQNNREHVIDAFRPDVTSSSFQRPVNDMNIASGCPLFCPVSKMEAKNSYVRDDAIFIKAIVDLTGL
Assay: co-IP; HCT 116 cells untreated or primed with TNF-α (10 ng/mL, 12 h), then treated with 5 uM TAT-FADD for 6 h; endogenous TRAF2 immunoprecipitated from NP-40 lysate, beads washed with RIPA buffer; Western blot for cIAP2 and RIP1
Conditions: remark: other sources report otherwise

binding: binds
B1: receptor-interacting protein kinase (RIP1), Q13546 1-671 (enzyme)
chain: MQPDMSLNVIKMKSSDFLESAELDSGGFGKVSLCFHRTQGLMIMKTVYKGPNCIEHNEALLEEAKMMNRLRHSRVVKLLGVIIEEGKYSLVMEYMEKGNLMHVLKAEMSTPLSVKGRIILEIIEGMCYLHGKGVIHKDLKPENILVDNDFHIKIADLGLASFKMWSKLNNEEHNELREVDGTAKKNGGTLYYMAPEHLNDVNAKPTEKSDVYSFAVVLWAIFANKEPYENAICEQQLIMCIKSGNRPDVDDITEYCPREIISLMKLCWEANPEARPTFPGIEEKFRPFYLSQLEESVEEDVKSLKKEYSNENAVVKRMQSLQLDCVAVPSSRSNSATEQPGSLHSSQGLGMGPVEESWFAPSLEHPQEENEPSLQSKLQDEANYHLYGSRMDRQTKQQPRQNVAYNREEERRRRVSHDPFAQQRPYENFQNTEGKGTAYSSAASHGNAVHQPSGLTSQPQVLYQNNGLYSSHGFGTRPLDPGTAGPRVWYRPIPSHMPSLHNIPVPETNYLGNTPTMPFSSLPPTDESIKYTIYNSTGIQIGAYNYMEIGGTSSSLLDSTNTNFKEEPAAKYQAIFDNTTSLTDKHLDPIRENLGKHWKNCARKLGFTQSQIDEIDHDYERDGLKEKVYQMLQKWVMREGIKGATVGKLAQALHQCSRIDLLSSLIYVSQN
